From the supplement of paper PMC12823440, “Inhibitors supercharge kinase turnover through native proteolytic circuits” (Nature, 2025)
Where a name gives a salt, the structure may show the parent alone. The list shows a part of the results. Hit calls seldom repeat between salt and free forms of one compound.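 Kinases, fused to nanoluciferase, were expressed in K562 cells; luminescence was measured every 4 h from 2 to 18 h as percent of control (DMSO = 100%, positive control = 0%). A time point is decreased if signal falls significantly (2 sigma). Hits were called by the authors by a rule that is not shown; the count of time points alone does not decide it.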

Chains of the proteins cited; added tags and fusions are not shown. Lines headed by an entry give the natural chain unless they say otherwise; changes in a name come on top.
UniProt P23458: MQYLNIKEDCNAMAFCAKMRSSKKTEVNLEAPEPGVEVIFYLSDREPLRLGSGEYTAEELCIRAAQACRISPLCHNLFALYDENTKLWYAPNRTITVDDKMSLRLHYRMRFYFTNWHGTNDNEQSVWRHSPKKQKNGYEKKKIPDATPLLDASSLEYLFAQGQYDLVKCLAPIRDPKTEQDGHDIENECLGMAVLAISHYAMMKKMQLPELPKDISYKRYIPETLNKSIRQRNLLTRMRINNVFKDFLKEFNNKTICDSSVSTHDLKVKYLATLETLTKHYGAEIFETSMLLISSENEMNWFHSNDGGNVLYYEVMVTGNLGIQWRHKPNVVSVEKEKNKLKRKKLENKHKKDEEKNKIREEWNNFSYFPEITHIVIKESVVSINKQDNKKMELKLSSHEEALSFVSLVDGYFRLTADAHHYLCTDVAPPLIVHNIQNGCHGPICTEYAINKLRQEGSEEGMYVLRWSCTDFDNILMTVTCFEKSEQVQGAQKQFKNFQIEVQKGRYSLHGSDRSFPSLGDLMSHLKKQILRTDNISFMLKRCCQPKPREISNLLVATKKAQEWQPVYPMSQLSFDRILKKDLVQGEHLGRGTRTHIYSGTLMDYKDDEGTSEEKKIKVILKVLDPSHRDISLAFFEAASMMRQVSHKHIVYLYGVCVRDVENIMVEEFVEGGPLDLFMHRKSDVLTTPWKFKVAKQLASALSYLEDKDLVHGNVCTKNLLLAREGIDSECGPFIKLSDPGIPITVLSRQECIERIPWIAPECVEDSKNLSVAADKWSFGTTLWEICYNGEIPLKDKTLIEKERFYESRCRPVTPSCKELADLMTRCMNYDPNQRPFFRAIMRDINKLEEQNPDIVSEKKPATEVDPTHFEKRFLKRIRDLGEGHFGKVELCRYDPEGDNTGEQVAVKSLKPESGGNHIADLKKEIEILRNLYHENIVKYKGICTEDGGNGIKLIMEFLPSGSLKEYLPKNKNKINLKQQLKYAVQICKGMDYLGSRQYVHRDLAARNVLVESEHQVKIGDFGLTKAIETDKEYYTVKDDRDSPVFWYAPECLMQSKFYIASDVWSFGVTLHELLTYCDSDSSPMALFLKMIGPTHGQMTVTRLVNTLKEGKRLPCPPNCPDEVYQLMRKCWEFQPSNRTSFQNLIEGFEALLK
UniProt P06239: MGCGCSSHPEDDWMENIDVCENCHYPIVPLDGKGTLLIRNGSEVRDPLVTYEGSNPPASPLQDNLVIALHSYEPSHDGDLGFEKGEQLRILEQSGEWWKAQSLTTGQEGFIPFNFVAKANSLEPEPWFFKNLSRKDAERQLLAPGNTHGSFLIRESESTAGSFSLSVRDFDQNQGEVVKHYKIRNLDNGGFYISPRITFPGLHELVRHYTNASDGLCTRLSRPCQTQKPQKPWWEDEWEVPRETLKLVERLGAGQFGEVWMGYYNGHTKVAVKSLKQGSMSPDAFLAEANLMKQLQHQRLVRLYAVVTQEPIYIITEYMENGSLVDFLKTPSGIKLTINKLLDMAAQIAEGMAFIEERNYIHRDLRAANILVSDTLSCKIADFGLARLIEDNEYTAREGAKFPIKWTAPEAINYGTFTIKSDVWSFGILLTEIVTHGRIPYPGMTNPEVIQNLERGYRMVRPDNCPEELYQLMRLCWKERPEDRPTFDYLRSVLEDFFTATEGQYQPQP
UniProt Q8IWU2: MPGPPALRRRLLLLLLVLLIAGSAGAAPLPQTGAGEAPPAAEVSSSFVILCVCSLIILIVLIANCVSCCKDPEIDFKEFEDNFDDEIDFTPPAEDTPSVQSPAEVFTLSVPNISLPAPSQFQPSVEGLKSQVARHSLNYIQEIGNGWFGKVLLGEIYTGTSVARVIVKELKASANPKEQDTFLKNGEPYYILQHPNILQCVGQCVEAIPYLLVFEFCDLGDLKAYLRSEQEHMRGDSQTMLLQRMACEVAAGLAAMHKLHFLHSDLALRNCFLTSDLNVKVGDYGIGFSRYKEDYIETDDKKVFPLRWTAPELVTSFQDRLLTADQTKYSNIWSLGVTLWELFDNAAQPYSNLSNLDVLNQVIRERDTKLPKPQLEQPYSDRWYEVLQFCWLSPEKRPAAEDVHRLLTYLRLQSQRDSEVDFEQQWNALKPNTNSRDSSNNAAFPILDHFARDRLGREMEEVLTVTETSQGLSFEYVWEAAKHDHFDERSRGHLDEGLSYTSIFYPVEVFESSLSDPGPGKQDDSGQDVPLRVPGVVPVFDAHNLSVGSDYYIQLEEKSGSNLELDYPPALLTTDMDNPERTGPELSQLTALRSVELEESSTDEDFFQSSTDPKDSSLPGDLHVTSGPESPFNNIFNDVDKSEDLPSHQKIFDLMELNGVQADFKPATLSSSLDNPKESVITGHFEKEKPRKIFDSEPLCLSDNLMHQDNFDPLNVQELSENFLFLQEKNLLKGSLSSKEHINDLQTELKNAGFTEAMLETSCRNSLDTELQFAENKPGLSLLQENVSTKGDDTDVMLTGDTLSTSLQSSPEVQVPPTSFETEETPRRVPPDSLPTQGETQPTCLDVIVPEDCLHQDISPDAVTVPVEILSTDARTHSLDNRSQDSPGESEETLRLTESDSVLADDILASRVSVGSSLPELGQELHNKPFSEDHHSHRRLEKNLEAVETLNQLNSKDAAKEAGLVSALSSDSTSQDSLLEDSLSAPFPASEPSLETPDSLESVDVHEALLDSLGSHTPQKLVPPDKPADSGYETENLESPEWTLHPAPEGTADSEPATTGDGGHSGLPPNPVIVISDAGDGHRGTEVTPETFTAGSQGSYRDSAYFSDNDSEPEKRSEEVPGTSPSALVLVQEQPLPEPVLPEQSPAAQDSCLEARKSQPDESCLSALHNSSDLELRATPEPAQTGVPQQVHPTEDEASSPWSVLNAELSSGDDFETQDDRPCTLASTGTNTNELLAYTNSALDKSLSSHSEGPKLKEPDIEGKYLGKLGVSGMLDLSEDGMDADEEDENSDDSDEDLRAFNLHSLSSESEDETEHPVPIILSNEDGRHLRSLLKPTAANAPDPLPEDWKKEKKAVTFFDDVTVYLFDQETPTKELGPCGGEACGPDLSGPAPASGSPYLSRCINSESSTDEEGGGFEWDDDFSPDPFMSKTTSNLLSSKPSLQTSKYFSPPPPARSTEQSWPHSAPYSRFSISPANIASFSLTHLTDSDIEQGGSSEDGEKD
UniProt P07948: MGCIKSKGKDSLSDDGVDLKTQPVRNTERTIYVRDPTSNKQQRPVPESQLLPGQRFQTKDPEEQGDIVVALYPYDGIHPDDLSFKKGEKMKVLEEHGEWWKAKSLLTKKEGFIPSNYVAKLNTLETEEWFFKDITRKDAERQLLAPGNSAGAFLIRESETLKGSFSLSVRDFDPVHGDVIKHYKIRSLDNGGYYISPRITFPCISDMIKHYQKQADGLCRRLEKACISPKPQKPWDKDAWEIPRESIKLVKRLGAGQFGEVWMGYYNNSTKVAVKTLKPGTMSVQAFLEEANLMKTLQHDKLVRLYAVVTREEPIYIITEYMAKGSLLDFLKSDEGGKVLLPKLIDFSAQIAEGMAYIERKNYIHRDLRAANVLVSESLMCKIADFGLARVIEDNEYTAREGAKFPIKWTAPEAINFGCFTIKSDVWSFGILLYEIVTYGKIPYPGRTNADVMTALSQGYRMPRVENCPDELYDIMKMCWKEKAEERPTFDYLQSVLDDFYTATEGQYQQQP
UniProt P31152, whole entry: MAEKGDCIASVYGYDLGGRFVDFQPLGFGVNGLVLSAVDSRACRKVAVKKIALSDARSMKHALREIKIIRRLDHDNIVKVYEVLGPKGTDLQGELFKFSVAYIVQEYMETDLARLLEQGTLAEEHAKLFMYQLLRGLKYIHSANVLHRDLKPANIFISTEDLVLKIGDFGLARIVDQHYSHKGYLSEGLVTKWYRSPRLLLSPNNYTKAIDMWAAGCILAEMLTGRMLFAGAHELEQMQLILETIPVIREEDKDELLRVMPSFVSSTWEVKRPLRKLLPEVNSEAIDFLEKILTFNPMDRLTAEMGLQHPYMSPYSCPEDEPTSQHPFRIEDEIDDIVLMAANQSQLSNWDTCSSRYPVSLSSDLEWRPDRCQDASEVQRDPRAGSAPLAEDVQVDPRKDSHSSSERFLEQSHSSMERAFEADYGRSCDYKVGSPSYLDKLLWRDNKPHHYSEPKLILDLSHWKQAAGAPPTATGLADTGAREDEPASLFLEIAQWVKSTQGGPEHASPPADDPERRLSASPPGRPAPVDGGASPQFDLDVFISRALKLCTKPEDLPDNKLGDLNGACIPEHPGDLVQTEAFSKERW
UniProt P49137, whole entry, looked up: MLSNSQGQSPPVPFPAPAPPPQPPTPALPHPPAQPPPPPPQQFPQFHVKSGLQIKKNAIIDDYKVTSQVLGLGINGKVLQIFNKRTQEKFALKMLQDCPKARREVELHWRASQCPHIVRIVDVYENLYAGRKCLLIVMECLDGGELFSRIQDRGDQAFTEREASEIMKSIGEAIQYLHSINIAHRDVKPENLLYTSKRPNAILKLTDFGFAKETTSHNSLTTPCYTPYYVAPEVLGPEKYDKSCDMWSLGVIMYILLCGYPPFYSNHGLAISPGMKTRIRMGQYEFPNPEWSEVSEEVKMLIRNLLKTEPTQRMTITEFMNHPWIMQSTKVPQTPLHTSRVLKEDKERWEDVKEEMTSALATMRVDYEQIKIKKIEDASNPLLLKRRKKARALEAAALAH
UniProt Q9BUB5: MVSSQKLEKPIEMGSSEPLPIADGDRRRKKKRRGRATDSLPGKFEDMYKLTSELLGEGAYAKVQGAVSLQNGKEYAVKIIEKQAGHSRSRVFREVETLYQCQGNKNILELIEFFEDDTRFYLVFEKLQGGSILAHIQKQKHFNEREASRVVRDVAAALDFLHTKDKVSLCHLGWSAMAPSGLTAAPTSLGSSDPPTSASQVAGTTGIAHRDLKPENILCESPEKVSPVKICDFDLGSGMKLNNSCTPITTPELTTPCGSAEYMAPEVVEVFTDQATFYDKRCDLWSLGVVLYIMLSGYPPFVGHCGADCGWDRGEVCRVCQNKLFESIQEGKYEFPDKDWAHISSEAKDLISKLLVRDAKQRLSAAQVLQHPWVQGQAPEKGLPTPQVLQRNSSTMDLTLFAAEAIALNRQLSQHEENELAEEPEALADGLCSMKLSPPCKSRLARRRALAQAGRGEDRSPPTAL
UniProt Q16288, whole entry, looked up: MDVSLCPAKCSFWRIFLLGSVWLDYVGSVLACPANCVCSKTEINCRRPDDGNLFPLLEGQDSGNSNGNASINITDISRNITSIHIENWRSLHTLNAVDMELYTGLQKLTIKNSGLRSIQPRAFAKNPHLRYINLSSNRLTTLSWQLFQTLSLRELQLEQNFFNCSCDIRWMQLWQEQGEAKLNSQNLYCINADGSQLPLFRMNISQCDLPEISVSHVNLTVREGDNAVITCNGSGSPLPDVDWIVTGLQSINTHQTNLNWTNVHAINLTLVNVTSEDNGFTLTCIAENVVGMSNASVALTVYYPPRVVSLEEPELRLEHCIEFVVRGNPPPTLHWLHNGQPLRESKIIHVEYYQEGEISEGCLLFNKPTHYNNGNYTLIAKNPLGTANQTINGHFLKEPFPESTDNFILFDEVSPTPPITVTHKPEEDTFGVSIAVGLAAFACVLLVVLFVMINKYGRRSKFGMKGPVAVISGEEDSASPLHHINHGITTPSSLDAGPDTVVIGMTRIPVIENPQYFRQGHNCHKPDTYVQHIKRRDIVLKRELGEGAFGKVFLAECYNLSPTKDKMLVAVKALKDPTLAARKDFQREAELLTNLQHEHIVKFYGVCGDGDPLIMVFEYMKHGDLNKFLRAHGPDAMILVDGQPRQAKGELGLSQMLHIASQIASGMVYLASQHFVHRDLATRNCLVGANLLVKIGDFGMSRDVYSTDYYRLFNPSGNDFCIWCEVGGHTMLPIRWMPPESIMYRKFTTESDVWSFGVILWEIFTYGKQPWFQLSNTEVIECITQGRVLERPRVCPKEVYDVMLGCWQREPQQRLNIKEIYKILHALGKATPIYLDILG
UniProt Q96KB5: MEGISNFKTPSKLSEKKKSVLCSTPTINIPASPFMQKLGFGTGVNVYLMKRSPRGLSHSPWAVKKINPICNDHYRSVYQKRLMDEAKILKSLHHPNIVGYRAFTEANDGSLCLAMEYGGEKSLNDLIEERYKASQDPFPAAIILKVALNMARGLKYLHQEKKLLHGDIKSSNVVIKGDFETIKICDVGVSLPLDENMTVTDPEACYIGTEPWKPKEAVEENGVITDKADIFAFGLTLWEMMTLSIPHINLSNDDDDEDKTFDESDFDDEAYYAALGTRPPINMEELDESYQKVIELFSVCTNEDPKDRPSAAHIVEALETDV

Legend:
Assay in all cases: kinase-Nluc reporter destabilization hit call (1 = scored as downregulated) (binary); higher = compound decreases kinase abundance
Conditions in all cases: K562; 2-18 h
IRAK3 = IRAK3 (UniProt Q9Y616)
JAK1 = JAK1 (UniProt P23458)
LCK = LCK (UniProt P06239)
LIMK1 = LIMK1 (UniProt P53667)
LIMK2 = LIMK2 (UniProt P53671)
LMTK2 = LMTK2 (UniProt Q8IWU2)
LYN = LYN (UniProt P07948)
MAP2K1 = MAP2K1 (UniProt Q02750)
MAP2K2 = MAP2K2 (UniProt P36507)
MAP4K2 = MAP4K2 (UniProt Q12851)
MAPK1 = MAPK1 (UniProt P28482)
MAPK4 = MAPK4 (UniProt P31152)
MAPKAPK2 = MAPKAPK2 (UniProt P49137)
MKNK1 = MKNK1 (UniProt Q9BUB5)
NTRK2 = NTRK2 (UniProt Q16620)
NTRK3 = NTRK3 (UniProt Q16288)
PAK4 = PAK4 (UniProt O96013)
PBK = PBK (UniProt Q96KB5)
PDGFRB = PDGFRB (UniProt P09619)
PDK1 = PDK1 (UniProt Q15118)

Measured: kinase-Nluc reporter destabilization hit call

C=CC(=O)Nc1ccc(CN2C(=O)N(c3cc(OC)cc(OC)c3)Cc3cnc(Nc4ccc(N5CCN(C)CC5)cc4)nc32)cc1 (2.5 µM)
inactive: IRAK3 = 0 | JAK1 = 0 | LCK 0 | LIMK1 = 0 | LIMK2 = 0 | LMTK2 = 0 | LYN 0 | MAP2K1 = 0 | MAP2K2 = 0 | MAP4K2 = 0 | MAPK1 = 0 | MAPK4 = 0 | MAPKAPK2 = 0 | MKNK1 = 0 | NTRK2 = 0 | NTRK3 = 0 | PAK4 = 0 | PBK 0 | PDGFRB 0 | PDK1 = 0

COc1cc(Nc2ncc(F)c(Nc3ccc4c(n3)NC(=O)C(C)(C)O4)n2)cc(OC)c1OC (10 µM)
inactive: IRAK3 = 0 | JAK1 = 0 | LIMK1 = 0 | LIMK2 = 0 | LMTK2 = 0 | LYN 0 | MAP2K1 = 0 | MAP2K2 = 0 | MAP4K2 = 0 | MAPK1 = 0 | MAPK4 = 0 | MAPKAPK2 = 0 | MKNK1 = 0 | NTRK2 = 0 | PAK4 = 0 | PBK 0 | PDGFRB 0 | PDK1 = 0

COc1ncc(Cl)cc1S(=O)(=O)Nc1ccc(F)c(C#Cc2cnc(N)nc2)c1F (2.5 µM)
inactive: IRAK3 = 0 | JAK1 = 0 | LCK 0 | LIMK1 = 0 | LIMK2 = 0 | LMTK2 = 0 | LYN 0 | MAP2K1 = 0 | MAP2K2 = 0 | MAP4K2 = 0 | MAPK1 = 0 | MAPK4 = 0 | MAPKAPK2 = 0 | MKNK1 = 0 | NTRK2 = 0 | NTRK3 = 0 | PAK4 = 0 | PBK 0 | PDGFRB 0 | PDK1 = 0

COCCNc1nc2ccc(C#CC3(O)CCCCC3)cc2n1-c1ccnc(N)n1 (10 µM)
inactive: IRAK3 = 0 | JAK1 = 0 | LCK 0 | LIMK1 = 0 | LIMK2 = 0 | LMTK2 = 0 | LYN 0 | MAP2K1 = 0 | MAP2K2 = 0 | MAP4K2 = 0 | MAPK1 = 0 | MAPK4 = 0 | MAPKAPK2 = 0 | MKNK1 = 0 | NTRK2 = 0 | NTRK3 = 0 | PAK4 = 0 | PBK 0 | PDGFRB 0 | PDK1 = 0

CC1CCc2c(cc(Br)c(F)c2Br)N1C=O (stereo not given) (10 µM)
inactive: IRAK3 = 0 | JAK1 = 0 | LCK 0 | LIMK1 = 0 | LIMK2 = 0 | LMTK2 = 0 | LYN 0 | MAP2K1 = 0 | MAP2K2 = 0 | MAP4K2 = 0 | MAPK1 = 0 | MAPK4 = 0 | MAPKAPK2 = 0 | MKNK1 = 0 | NTRK2 = 0 | NTRK3 = 0 | PAK4 = 0 | PBK 0 | PDGFRB 0 | PDK1 = 0

C[C@@H]1CCN(C(=O)CC#N)C[C@@H]1N(C)c1ncnc2[nH]ccc12 [Tofacitinib] (10 µM)
inactive: IRAK3 = 0 | LCK 0 | LIMK1 = 0 | LIMK2 = 0 | LMTK2 = 0 | LYN 0 | MAP2K1 = 0 | MAP2K2 = 0 | MAP4K2 = 0 | MAPK1 = 0 | MAPK4 = 0 | MAPKAPK2 = 0 | MKNK1 = 0 | NTRK2 = 0 | NTRK3 = 0 | PAK4 = 0 | PBK 0 | PDK1 = 0

COc1cc2c(N3CCN(C(=O)Nc4ccc(OC(C)C)cc4)CC3)ncnc2cc1OCCCN1CCCCC1 [Tandutinib] (10 µM)
inactive: IRAK3 = 0 | JAK1 = 0 | LCK 0 | LIMK1 = 0 | LIMK2 = 0 | LMTK2 = 0 | LYN 0 | MAP2K1 = 0 | MAP2K2 = 0 | MAP4K2 = 0 | MAPK1 = 0 | MAPK4 = 0 | MAPKAPK2 = 0 | MKNK1 = 0 | NTRK2 = 0 | PAK4 = 0 | PBK 0 | PDK1 = 0

C[C@@H](c1ccc(-c2ccccc2)c(F)c1)c1cc(NC(=N)N2CCOCC2)on1 [Rimacalib] (10 µM)
inactive: IRAK3 = 0 | JAK1 = 0 | LCK 0 | LIMK1 = 0 | LIMK2 = 0 | LMTK2 = 0 | LYN 0 | MAP2K1 = 0 | MAP2K2 = 0 | MAP4K2 = 0 | MAPK1 = 0 | MAPK4 = 0 | MAPKAPK2 = 0 | MKNK1 = 0 | NTRK2 = 0 | NTRK3 = 0 | PAK4 = 0 | PBK 0 | PDGFRB 0 | PDK1 = 0

O=C(NOCC(O)CO)c1cc(Br)c(F)c(F)c1Nc1ccc(I)cc1F (stereo not given) (2.5 µM)
inactive: IRAK3 = 0 | JAK1 = 0 | LCK 0 | LIMK1 = 0 | LIMK2 = 0 | LMTK2 = 0 | LYN 0 | MAP2K1 = 0 | MAP2K2 = 0 | MAP4K2 = 0 | MAPK1 = 0 | MAPK4 = 0 | MAPKAPK2 = 0 | MKNK1 = 0 | NTRK2 = 0 | NTRK3 = 0 | PAK4 = 0 | PBK 0 | PDGFRB 0 | PDK1 = 0

Cc1ccccc1-c1c2nccc(-c3ccc(F)cc3F)c2cc[n+]1[O-] (10 µM)
inactive: IRAK3 = 0 | JAK1 = 0 | LCK 0 | LIMK1 = 0 | LIMK2 = 0 | LMTK2 = 0 | LYN 0 | MAP2K1 = 0 | MAP2K2 = 0 | MAP4K2 = 0 | MAPK1 = 0 | MAPK4 = 0 | MAPKAPK2 = 0 | MKNK1 = 0 | NTRK2 = 0 | NTRK3 = 0 | PAK4 = 0 | PBK 0 | PDGFRB 0 | PDK1 = 0

COc1cc(Nc2ncc(F)c(Nc3ccc4c(n3)NC(=O)C(C)(C)O4)n2)cc(OC)c1OC [R406 (free base)] (10 µM)
inactive: IRAK3 = 0 | JAK1 = 0 | LIMK1 = 0 | LIMK2 = 0 | LMTK2 = 0 | LYN 0 | MAP2K1 = 0 | MAP2K2 = 0 | MAP4K2 = 0 | MAPK1 = 0 | MAPK4 = 0 | MAPKAPK2 = 0 | MKNK1 = 0 | NTRK2 = 0 | PAK4 = 0 | PBK 0 | PDGFRB 0 | PDK1 = 0

COc1cc2c(N3CCN(C(=O)Nc4ccc(OC(C)C)cc4)CC3)ncnc2cc1OCCCN1CCCCC1 [Tandutinib (hydrochloride)] (10 µM)
inactive: IRAK3 = 0 | JAK1 = 0 | LCK 0 | LIMK1 = 0 | LIMK2 = 0 | LMTK2 = 0 | LYN 0 | MAP2K1 = 0 | MAP2K2 = 0 | MAP4K2 = 0 | MAPK1 = 0 | MAPK4 = 0 | MAPKAPK2 = 0 | MKNK1 = 0 | NTRK2 = 0 | PAK4 = 0 | PBK 0 | PDK1 = 0

CCN1CCN(Cc2ccc(-c3cc4c(N[C@H](C)c5ccccc5)ncnc4[nH]3)cc2)CC1 (2.5 µM)
inactive: IRAK3 = 0 | JAK1 = 0 | LCK 0 | LIMK1 = 0 | LIMK2 = 0 | LMTK2 = 0 | LYN 0 | MAP2K1 = 0 | MAP2K2 = 0 | MAP4K2 = 0 | MAPK1 = 0 | MAPK4 = 0 | MAPKAPK2 = 0 | MKNK1 = 0 | NTRK2 = 0 | NTRK3 = 0 | PAK4 = 0 | PBK 0 | PDGFRB 0 | PDK1 = 0

CN(C)CCSSCCNC(=O)C1CCN(C(=O)CSc2ccc(Cl)cc2)CC1 (10 µM)
inactive: IRAK3 = 0 | JAK1 = 0 | LCK 0 | LIMK1 = 0 | LIMK2 = 0 | LMTK2 = 0 | LYN 0 | MAP2K1 = 0 | MAP2K2 = 0 | MAP4K2 = 0 | MAPK1 = 0 | MAPK4 = 0 | MAPKAPK2 = 0 | MKNK1 = 0 | NTRK2 = 0 | NTRK3 = 0 | PAK4 = 0 | PBK 0 | PDGFRB 0 | PDK1 = 0

Cn1ncc(Cl)c1-c1cc(C(=O)N[C@H](CN)Cc2ccc(F)c(F)c2)oc1Cl [Uprosertib] (10 µM)
inactive: IRAK3 = 0 | JAK1 = 0 | LCK 0 | LIMK1 = 0 | LIMK2 = 0 | LMTK2 = 0 | LYN 0 | MAP2K1 = 0 | MAP2K2 = 0 | MAP4K2 = 0 | MAPK1 = 0 | MAPK4 = 0 | MAPKAPK2 = 0 | MKNK1 = 0 | NTRK2 = 0 | NTRK3 = 0 | PAK4 = 0 | PBK 0 | PDGFRB 0 | PDK1 = 0

Two entries picked at random from the list so far:
C[C@@H](c1ccc(-c2ccccc2)c(F)c1)c1cc(NC(=N)N2CCOCC2)on1 [Rimacalib] (10 µM)
inactive: IRAK3 = 0 | JAK1 = 0 | LCK 0 | LIMK1 = 0 | LIMK2 = 0 | LMTK2 = 0 | LYN 0 | MAP2K1 = 0 | MAP2K2 = 0 | MAP4K2 = 0 | MAPK1 = 0 | MAPK4 = 0 | MAPKAPK2 = 0 | MKNK1 = 0 | NTRK2 = 0 | NTRK3 = 0 | PAK4 = 0 | PBK 0 | PDGFRB 0 | PDK1 = 0

CC1CCc2c(cc(Br)c(F)c2Br)N1C=O (stereo not given) (10 µM)
inactive: IRAK3 = 0 | JAK1 = 0 | LCK 0 | LIMK1 = 0 | LIMK2 = 0 | LMTK2 = 0 | LYN 0 | MAP2K1 = 0 | MAP2K2 = 0 | MAP4K2 = 0 | MAPK1 = 0 | MAPK4 = 0 | MAPKAPK2 = 0 | MKNK1 = 0 | NTRK2 = 0 | NTRK3 = 0 | PAK4 = 0 | PBK 0 | PDGFRB 0 | PDK1 = 0

(further entries)

Cn1cc(-c2ccc3c(c2)CCN3C(=O)Cc2cccc(C(F)(F)F)c2)c2c(N)ncnc21 (2.5 µM)
inactive: IRAK3 = 0 | JAK1 = 0 | LCK 0 | LIMK1 = 0 | LIMK2 = 0 | LMTK2 = 0 | LYN 0 | MAP2K1 = 0 | MAP2K2 = 0 | MAP4K2 = 0 | MAPK1 = 0 | MAPK4 = 0 | MAPKAPK2 = 0 | MKNK1 = 0 | NTRK2 = 0 | NTRK3 = 0 | PAK4 = 0 | PBK 0 | PDGFRB 0 | PDK1 = 0

Cn1cnc2c(F)c(Nc3ccc(Br)cc3Cl)c(C(=O)NOCCO)cc21 [Selumetinib (sulfate)] (10 µM)
inactive: IRAK3 = 0 | JAK1 = 0 | LCK 0 | LIMK1 = 0 | LIMK2 = 0 | LMTK2 = 0 | LYN 0 | MAP2K1 = 0 | MAP2K2 = 0 | MAP4K2 = 0 | MAPK1 = 0 | MAPK4 = 0 | MAPKAPK2 = 0 | MKNK1 = 0 | NTRK2 = 0 | NTRK3 = 0 | PAK4 = 0 | PBK 0 | PDGFRB 0 | PDK1 = 0
